These are yes or no findings as the source states them, for the method shown. In cells and extracts the contact can be indirect. These calls come from enrichment with a bait or labelling near it, and not all partners need be listed.
Target: T1, ATP-dependent 6-phosphofructokinase, platelet type (human (endogenous in MDA-MB-231 and SUM-159)) (UniProt Q01813)
T1 sequence: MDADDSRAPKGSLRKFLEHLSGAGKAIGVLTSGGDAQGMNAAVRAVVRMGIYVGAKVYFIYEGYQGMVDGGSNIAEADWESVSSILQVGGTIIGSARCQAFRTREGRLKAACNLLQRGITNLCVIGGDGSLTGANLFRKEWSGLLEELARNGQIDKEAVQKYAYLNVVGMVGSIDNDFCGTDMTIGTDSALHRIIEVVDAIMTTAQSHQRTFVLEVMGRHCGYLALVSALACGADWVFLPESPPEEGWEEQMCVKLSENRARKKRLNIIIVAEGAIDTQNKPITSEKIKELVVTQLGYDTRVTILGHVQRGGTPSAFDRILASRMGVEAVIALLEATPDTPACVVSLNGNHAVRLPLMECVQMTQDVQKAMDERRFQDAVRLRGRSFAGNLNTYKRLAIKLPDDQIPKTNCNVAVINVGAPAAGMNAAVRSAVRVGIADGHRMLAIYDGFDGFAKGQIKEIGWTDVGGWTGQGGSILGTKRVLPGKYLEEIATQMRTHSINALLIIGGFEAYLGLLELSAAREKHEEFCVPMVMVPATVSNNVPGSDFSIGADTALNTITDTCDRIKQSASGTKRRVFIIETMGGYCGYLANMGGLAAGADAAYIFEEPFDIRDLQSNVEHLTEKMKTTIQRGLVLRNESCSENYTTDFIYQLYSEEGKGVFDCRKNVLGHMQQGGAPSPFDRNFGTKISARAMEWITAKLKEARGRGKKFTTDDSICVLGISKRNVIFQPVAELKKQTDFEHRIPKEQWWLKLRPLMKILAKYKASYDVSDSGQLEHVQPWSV
Test: affinity purification with mass spectrometry; Co-IP of PFKP from MDA-MB-231 cells followed by mass spectrometry-based protein identification

Sequences of proteins named here, by UniProt entry; tags and fusion partners are left off.
UniProt Q14258: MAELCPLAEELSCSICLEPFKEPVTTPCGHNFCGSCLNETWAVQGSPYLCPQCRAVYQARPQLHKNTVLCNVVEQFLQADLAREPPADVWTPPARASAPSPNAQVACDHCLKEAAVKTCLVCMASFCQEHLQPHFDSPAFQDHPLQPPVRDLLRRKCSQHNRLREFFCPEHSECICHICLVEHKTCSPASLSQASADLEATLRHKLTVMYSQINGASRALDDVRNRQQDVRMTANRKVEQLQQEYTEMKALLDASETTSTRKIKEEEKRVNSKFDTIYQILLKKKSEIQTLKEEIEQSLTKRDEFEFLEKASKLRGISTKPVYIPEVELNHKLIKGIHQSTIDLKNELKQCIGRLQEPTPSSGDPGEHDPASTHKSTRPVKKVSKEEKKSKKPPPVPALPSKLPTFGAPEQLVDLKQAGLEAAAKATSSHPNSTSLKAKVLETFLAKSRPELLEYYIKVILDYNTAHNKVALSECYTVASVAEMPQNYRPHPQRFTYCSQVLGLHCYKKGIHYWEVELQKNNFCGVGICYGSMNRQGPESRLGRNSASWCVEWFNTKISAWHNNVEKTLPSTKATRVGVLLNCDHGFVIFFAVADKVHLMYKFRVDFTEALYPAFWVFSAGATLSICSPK
UniProt Q7Z6Z7: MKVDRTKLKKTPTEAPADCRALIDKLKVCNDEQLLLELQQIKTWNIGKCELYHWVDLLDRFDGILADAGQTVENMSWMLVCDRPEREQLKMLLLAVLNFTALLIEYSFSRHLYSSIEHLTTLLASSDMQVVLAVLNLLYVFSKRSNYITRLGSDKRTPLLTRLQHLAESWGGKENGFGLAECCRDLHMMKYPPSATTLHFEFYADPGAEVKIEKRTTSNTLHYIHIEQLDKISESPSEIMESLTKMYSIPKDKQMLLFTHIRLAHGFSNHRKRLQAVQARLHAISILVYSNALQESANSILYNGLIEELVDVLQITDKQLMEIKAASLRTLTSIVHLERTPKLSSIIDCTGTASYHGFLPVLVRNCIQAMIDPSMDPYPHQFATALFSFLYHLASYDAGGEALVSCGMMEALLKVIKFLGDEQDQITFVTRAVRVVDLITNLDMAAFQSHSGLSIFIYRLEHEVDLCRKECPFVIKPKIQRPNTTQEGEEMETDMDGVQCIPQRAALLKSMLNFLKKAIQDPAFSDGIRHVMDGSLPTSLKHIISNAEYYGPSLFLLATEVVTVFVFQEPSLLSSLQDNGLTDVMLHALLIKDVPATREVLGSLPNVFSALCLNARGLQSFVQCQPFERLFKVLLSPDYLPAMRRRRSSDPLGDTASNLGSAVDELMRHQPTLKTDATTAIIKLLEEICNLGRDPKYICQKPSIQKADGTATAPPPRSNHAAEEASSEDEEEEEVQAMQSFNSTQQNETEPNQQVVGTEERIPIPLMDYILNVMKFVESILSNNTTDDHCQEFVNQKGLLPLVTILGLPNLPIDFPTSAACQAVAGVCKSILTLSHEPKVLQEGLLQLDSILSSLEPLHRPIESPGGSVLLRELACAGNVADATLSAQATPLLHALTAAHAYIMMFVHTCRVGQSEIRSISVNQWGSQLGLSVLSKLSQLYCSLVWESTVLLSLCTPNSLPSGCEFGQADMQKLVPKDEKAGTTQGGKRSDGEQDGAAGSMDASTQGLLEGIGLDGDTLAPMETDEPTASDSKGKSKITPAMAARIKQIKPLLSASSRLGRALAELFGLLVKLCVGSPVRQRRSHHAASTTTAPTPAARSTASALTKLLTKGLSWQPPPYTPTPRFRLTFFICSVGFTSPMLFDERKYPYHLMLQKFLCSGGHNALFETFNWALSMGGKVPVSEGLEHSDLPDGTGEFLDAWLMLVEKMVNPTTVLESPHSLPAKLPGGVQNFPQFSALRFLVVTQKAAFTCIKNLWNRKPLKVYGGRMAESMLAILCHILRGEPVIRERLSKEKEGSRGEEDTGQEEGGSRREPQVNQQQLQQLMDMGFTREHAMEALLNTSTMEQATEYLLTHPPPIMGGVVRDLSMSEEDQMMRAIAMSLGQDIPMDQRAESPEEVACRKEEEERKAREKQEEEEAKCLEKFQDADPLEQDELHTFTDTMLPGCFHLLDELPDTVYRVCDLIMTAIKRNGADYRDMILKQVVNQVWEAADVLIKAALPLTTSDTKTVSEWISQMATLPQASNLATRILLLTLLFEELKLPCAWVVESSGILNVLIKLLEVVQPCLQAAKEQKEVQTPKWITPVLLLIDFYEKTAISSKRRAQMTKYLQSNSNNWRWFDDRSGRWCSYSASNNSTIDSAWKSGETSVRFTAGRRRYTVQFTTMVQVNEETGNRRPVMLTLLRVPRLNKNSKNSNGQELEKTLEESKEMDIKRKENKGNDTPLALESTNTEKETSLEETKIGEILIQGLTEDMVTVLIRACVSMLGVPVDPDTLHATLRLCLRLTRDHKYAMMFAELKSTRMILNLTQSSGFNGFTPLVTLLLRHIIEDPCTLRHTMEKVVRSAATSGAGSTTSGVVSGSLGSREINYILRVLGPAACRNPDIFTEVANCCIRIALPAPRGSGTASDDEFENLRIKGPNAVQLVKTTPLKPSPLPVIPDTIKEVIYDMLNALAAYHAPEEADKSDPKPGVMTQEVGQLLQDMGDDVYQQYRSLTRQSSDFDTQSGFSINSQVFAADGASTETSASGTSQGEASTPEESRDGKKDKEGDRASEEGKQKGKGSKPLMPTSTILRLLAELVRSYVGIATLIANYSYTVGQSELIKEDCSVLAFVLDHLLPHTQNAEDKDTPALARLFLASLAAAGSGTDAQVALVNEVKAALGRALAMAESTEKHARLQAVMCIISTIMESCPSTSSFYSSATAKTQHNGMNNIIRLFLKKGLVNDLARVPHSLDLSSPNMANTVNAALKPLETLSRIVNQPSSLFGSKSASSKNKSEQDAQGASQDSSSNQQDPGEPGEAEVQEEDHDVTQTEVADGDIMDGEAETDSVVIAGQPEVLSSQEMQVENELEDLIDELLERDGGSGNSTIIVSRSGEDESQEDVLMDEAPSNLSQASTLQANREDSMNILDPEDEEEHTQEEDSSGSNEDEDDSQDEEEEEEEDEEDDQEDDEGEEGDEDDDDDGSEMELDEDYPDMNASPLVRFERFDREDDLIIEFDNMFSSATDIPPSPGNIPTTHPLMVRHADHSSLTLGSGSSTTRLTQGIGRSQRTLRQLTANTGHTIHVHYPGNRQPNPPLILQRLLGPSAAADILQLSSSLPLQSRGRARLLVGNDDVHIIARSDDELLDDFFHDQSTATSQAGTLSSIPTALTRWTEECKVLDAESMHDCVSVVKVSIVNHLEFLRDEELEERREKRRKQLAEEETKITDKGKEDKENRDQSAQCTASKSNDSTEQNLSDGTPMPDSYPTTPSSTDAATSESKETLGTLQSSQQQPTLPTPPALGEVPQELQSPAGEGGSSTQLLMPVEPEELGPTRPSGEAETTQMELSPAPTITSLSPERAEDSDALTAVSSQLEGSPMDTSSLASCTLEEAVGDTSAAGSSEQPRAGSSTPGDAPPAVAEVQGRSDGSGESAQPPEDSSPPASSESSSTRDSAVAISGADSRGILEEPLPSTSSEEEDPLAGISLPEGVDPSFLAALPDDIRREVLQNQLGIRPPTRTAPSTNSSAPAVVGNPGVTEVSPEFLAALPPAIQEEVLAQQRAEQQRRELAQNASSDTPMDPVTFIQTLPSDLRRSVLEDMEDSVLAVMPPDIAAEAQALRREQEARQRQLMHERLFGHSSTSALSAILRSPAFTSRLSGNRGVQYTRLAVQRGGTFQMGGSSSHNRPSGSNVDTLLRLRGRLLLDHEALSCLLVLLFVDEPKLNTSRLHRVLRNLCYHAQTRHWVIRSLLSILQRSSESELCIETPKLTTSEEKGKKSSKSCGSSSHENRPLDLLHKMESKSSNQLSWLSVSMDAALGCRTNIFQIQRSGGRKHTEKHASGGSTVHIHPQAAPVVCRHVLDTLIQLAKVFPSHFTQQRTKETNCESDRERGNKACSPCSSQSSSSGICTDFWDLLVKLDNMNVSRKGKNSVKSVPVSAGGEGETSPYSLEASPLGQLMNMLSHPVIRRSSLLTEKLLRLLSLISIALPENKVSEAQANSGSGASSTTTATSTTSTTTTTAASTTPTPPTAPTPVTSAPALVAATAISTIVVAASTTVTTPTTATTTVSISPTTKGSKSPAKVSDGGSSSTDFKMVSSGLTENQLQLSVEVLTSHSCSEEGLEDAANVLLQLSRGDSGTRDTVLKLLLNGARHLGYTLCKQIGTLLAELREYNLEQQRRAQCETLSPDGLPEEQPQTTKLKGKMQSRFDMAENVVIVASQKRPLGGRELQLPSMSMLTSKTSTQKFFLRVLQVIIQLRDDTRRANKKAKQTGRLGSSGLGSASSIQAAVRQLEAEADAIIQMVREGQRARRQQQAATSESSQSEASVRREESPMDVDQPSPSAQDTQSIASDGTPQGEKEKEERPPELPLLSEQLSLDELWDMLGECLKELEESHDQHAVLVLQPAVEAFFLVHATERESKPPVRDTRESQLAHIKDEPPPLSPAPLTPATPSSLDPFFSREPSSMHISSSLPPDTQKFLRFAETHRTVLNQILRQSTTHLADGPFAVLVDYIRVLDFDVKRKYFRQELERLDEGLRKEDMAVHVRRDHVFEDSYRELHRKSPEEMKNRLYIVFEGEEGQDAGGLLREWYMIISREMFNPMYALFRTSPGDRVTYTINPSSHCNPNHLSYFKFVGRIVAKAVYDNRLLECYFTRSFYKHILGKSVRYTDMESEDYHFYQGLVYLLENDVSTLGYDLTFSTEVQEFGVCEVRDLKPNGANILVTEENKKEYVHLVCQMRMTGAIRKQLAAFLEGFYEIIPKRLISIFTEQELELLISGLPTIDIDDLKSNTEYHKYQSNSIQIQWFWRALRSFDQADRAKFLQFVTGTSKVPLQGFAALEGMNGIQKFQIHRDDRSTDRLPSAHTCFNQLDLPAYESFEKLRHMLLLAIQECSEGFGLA
UniProt P19474: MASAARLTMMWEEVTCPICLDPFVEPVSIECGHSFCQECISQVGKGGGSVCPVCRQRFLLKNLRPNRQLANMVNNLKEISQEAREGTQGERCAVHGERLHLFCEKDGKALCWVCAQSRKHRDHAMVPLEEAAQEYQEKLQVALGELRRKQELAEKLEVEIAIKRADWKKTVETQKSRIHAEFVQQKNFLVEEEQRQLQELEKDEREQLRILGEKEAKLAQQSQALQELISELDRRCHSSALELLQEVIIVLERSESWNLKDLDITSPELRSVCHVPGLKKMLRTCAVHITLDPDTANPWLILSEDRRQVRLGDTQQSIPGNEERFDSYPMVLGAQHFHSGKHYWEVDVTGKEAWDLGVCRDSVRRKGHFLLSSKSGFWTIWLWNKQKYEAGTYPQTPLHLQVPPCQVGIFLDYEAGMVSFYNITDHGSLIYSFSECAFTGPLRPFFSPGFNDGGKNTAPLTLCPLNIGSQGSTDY
UniProt P45974: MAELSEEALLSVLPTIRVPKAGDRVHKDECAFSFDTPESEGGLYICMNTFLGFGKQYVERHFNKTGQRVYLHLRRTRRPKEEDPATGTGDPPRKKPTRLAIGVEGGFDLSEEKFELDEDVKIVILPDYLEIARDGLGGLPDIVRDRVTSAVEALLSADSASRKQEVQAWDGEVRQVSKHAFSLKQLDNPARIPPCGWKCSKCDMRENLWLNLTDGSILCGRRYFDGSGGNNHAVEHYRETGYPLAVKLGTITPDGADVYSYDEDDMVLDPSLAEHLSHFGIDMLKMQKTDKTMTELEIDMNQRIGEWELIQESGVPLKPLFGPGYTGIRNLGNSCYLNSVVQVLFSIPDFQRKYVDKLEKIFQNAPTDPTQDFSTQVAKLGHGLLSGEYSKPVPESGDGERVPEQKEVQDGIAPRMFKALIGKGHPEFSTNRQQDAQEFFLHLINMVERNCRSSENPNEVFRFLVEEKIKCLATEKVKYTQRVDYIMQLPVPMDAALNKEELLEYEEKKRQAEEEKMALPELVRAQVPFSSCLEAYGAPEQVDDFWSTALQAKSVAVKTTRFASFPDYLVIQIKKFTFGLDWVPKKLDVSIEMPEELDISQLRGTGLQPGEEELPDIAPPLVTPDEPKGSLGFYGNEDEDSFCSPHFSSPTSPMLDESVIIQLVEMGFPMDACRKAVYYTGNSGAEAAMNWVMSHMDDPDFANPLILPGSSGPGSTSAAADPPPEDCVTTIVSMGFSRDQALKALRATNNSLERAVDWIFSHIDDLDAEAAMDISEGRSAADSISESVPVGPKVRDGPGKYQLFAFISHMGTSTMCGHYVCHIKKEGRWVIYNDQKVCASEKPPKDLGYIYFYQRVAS

binding | Substance
binds | Tripartite motif-containing protein 25 (from UniProt Q14258 1-630) (enzyme)
binds | HECT, UBA and WWE domain-containing protein 1 (from UniProt Q7Z6Z7 1-4374) (enzyme)
binds | Tripartite motif-containing protein 21 (from UniProt P19474 1-475) (enzyme)
binds | Ubiquitin carboxyl-terminal hydrolase 5 (from UniProt P45974 1-858) (enzyme)

— PMC10787506
